Test results from paper PMC7819943, “Rice protein-binding microarrays: a tool to detect cis-acting elements near promoter regions in rice”.
This is one part of the list.

What follows are sequences tested against T1, OsSMF1 (Oryza sativa, UniProt Q6ZLB0 1-436) (assay: protein-binding microarray (RPBM); PBS, 2% BSA, 51.3 ng/ul salmon testes DNA, 50 uM zinc acetate, 200 nM TF, 25 C, 1 h; high values mean tight binding). Conditions: protein: recombinant; tags: N-terminal polyhistidine and DsRed monomer fusion (pET32a); chain copies: 2; label: CyDye5-dUTP incorporated in the synthesized complementary strand; 3' TTTTT single-stranded linker to array surface; dsDNA, one strand shown.
T1 sequence: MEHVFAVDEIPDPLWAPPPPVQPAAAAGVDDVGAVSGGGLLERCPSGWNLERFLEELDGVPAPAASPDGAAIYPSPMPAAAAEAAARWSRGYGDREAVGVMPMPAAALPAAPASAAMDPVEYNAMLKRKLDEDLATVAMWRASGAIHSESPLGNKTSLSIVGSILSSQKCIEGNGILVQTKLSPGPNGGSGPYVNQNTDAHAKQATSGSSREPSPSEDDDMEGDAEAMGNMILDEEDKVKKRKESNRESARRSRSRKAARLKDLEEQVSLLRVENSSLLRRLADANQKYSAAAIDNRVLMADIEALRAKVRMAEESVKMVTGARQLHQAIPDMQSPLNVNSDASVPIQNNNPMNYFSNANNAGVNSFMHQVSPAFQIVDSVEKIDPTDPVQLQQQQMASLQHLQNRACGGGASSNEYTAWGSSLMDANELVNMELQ
In short: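 In PBS with 2% BSA, salmon testes DNA and 50 µM zinc acetate, 200 nM protein was incubated on a custom Agilent array at 25 °C for 1 h and then washed off. The array had been made double-stranded by primer extension with Cy5-dUTP and blocked with 2% BSA. The proteins were transcription factors fused N-terminally to polyhistidine and DsRed, expressed in E. coli BL21-CodonPlus and purified on Ni–NTA. The binding signal is per-feature fluorescence intensity (arbitrary units) from an Axon 4000B scanner.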
“ATGTCTCTGCCATGGCACCATGGCAAGATGCACATATGCACGGAGTCACCTAGTGCAG” was tested, and the binding signal was 3930 fluorescence intensity (a.u.).
In the case of “CACGACCCCACGTGCCAGTGAGCTGGACGCGCATCGTCTTCGGAGTCACCTAGTGCAG”, the binding signal is reported as 7410 fluorescence intensity (a.u.).
For “TCGATCTGCACATGTGCACGCGCATGTGTCGTCGGCTTAGCGGAGTCACCTAGTGCAG”, the binding signal was 3230 fluorescence intensity (a.u.).
For “CACTACCCTTCACCTTCATCACTAATATACAGTGCCAAAACGGAGTCACCTAGTGCAG”, the binding signal was 6330 fluorescence intensity (a.u.).
“ACAAATTTATCAGCGTCAGAATCAAGCAAAGGAAATTGGACGGAGTCACCTAGTGCAG” was tested, and the binding signal was 3370 fluorescence intensity (a.u.).
In the case of “TCGTTTTAATTGACCACGTACTCAATCCGGTACTCTCCTTCGGAGTCACCTAGTGCAG”, the binding signal is reported as 5820 fluorescence intensity (a.u.).
For “GAATTGCCGCCACGCCGATCCTTTGCGCCACAGAGTAATACGGAGTCACCTAGTGCAG”, the binding signal was 28900 fluorescence intensity (a.u.).
For “GGTTGTGTGGTGGTATAGCCTATAGGTCTGGATTAGTTGGCGGAGTCACCTAGTGCAG”, the binding signal was 20800 fluorescence intensity (a.u.).
With “AGGACGTAGGAGGGCTTCCTGCTCTGCTGGTGACGTGCCTCGGAGTCACCTAGTGCAG” the binding signal was 12400 fluorescence intensity (a.u.).
“CCCGTTGCAAATAACTGTGTCAGCGCCCACGTCATCACCGCGGAGTCACCTAGTGCAG” was tested, and the binding signal was 25900 fluorescence intensity (a.u.).
With “GGTCCGACCTTTTATTTTGCTTCCAAGTGCCACATCACCGCGGAGTCACCTAGTGCAG” the binding signal was 17600 fluorescence intensity (a.u.).
“AGAAAATGTGGAATGACGCAAATGCCCTTCTGCCTCCTCGCGGAGTCACCTAGTGCAG” was tested, and the binding signal was 5440 fluorescence intensity (a.u.).
With “GTGACGCCTGGCGGCGAGCTCCGGCGCCGGCCACCTCACCCGGAGTCACCTAGTGCAG” the binding signal was 3800 fluorescence intensity (a.u.).
With “TTATAGATTTCGTTAGGTCTACATGTCACATCGGATACGACGGAGTCACCTAGTGCAG” the binding signal was 4590 fluorescence intensity (a.u.).
In the case of “CACCACACACCTGCCGGCCCATCTGCCTACGCGTCCTGTACGGAGTCACCTAGTGCAG”, the binding signal is reported as 3380 fluorescence intensity (a.u.).
“CGAAATAAGTAATTTACAGGGCTTTCTCTCTCTCGCTCACCGGAGTCACCTAGTGCAG” was tested, and the binding signal was 64400 fluorescence intensity (a.u.).
With “GCCGTTAGTGCCACGTGGCGCCTTCCCATTCGACCGCCGCCGGAGTCACCTAGTGCAG” the binding signal was 37400 fluorescence intensity (a.u.).
For “AGTCGGCAACAGCAGAAGTCCACGTACTGCTCAAGGGACACGGAGTCACCTAGTGCAG”, the binding signal was 3240 fluorescence intensity (a.u.).
“GGGTTGGGTGGGTGCTGTAATATGGGGAGATACTGACTACCGGAGTCACCTAGTGCAG” was tested, and the binding signal was 3450 fluorescence intensity (a.u.).
With “CCAATATACGTGGGCCGCATGTAAGCCTAAGTGGGCCGTCCGGAGTCACCTAGTGCAG” the binding signal was 3370 fluorescence intensity (a.u.).
In the case of “CTCTCTACTCTCGCCTGACATGAGCTGACATGGCATGCCACGGAGTCACCTAGTGCAG”, the binding signal is reported as 9830 fluorescence intensity (a.u.).
For “GGGTAAGGGTGCTCCAGATTCTTAGGATATCTGATATCTTCGGAGTCACCTAGTGCAG”, the binding signal was 3190 fluorescence intensity (a.u.).
With “CCTAGCTGCCCCTCGTGTCCACGTCCTTCAAAATGGTTAACGGAGTCACCTAGTGCAG” the binding signal was 5120 fluorescence intensity (a.u.).
In the case of “AGCTCTGCTACATGGTTACGTGTAGCCACAGGTCGTGCTACGGAGTCACCTAGTGCAG”, the binding signal is reported as 5190 fluorescence intensity (a.u.).
“CGGCCGCCATGGAGGCTTATATTGAGATGGAGAGAGGATACGGAGTCACCTAGTGCAG” was tested, and the binding signal was 25800 fluorescence intensity (a.u.).
With “CCTAACCGCCCAGCAGAGGCAAAGTGTGGTCGAAACCTAGCGGAGTCACCTAGTGCAG” the binding signal was 49500 fluorescence intensity (a.u.).
For “GGACCCAGAGCGTACATGCATACCCCTGTCACGGTGGGGCCGGAGTCACCTAGTGCAG”, the binding signal was 4690 fluorescence intensity (a.u.).
With “GGTTTATAATCTGAGTCATATGAATGCTCAAGCTGGGAACCGGAGTCACCTAGTGCAG” the binding signal was 6820 fluorescence intensity (a.u.).
“CGGACAGCCATCTCCCATCCAGTCACATCCACCCAATCAACGGAGTCACCTAGTGCAG” was tested, and the binding signal was 5500 fluorescence intensity (a.u.).
In the case of “AGCCCATCCCTTCCCTTCTGCATCGTACGGCCAGGATCTCCGGAGTCACCTAGTGCAG”, the binding signal is reported as 3410 fluorescence intensity (a.u.).
In the case of “AAAATATGACTATCAAAAGTAGATGGAGGGAGTATTTTGGCGGAGTCACCTAGTGCAG”, the binding signal is reported as 14700 fluorescence intensity (a.u.).
With “CCGGCGCATCCGTGCATGGTAATCACGTGCACCCCACGCCCGGAGTCACCTAGTGCAG” the binding signal was 3300 fluorescence intensity (a.u.).
In the case of “ATGTCCAGATAAGAGCTCCACCTCTGACTCACACACACATCGGAGTCACCTAGTGCAG”, the binding signal is reported as 3940 fluorescence intensity (a.u.).
In the case of “GAAGAAAATTCTCTCACACGTCGACTATAAATACCCCTCTCGGAGTCACCTAGTGCAG”, the binding signal is reported as 6470 fluorescence intensity (a.u.).
For “TCGTGCTCCCTTGTCAAAGTCCAATACGCCGGAGCTCTCACGGAGTCACCTAGTGCAG”, the binding signal was 19700 fluorescence intensity (a.u.).
With “AAGCTACCGACGATGCATATGTTGCGCTCTGTAAATTAAACGGAGTCACCTAGTGCAG” the binding signal was 11300 fluorescence intensity (a.u.).
With “GCCGCCGCCGCCGCCGCCGCCACCGCCACCGCCACCGCCACGGAGTCACCTAGTGCAG” the binding signal was 3230 fluorescence intensity (a.u.).
With “GTCCTACTTGCTGACTGTTACTCCTTGTGGCTTCTAATGTCGGAGTCACCTAGTGCAG” the binding signal was 4480 fluorescence intensity (a.u.).
With “CTCTACCGATGCCTCCAAGAAAACCCTAGCGCCGCTCCTCCGGAGTCACCTAGTGCAG” the binding signal was 25700 fluorescence intensity (a.u.).
In the case of “ACTGTGCTTCTTCTCCGTGTTGCCACCTCATCGCCATCGCCGGAGTCACCTAGTGCAG”, the binding signal is reported as 13900 fluorescence intensity (a.u.).
In the case of “GACGGCGCGGTCGACCCACCGTCTGCCACGTCAGCTTGCCCGGAGTCACCTAGTGCAG”, the binding signal is reported as 50100 fluorescence intensity (a.u.).
With “TTATTCTACGTCAGTTAGAGTACCGCCCGCTTCATCTTCGCGGAGTCACCTAGTGCAG” the binding signal was 3540 fluorescence intensity (a.u.).
In the case of “AATAACAACACGTAAGGTACGGGTTTAGGTTGATTGCCCTCGGAGTCACCTAGTGCAG”, the binding signal is reported as 5980 fluorescence intensity (a.u.).
With “TACATCAGCTTCACTAGATTAATTGGCACATCATCTGACTCGGAGTCACCTAGTGCAG” the binding signal was 3210 fluorescence intensity (a.u.).
In the case of “CCGGCAGTCCCCACACCTCACGCGCCTCCGGCGCCTCCCCCGGAGTCACCTAGTGCAG”, the binding signal is reported as 3860 fluorescence intensity (a.u.).
For “GGGGAGGCGGGGTGGCGGGAGGGAAGGCGGCGGCGGCGCCCGGAGTCACCTAGTGCAG”, the binding signal was 6090 fluorescence intensity (a.u.).
“TGGCATGCATGACACTAAAGTCATCATCTTAGTGCGCATACGGAGTCACCTAGTGCAG” was tested, and the binding signal was 3390 fluorescence intensity (a.u.).
In the case of “CGCCGCCGCCAAAGCCGCAAGCCAAAAGGGGAACACCCGCCGGAGTCACCTAGTGCAG”, the binding signal is reported as 27800 fluorescence intensity (a.u.).
“CCTACAGAGTTGCCGTCTGCATGCCTGCGTGGAATCATCTCGGAGTCACCTAGTGCAG” was tested, and the binding signal was 5390 fluorescence intensity (a.u.).
In the case of “CAACCAACCCCACCACGCGTCCTGCATAATCACCGTCCGTCGGAGTCACCTAGTGCAG”, the binding signal is reported as 4220 fluorescence intensity (a.u.).
In the case of “CAATGGGATGACTGCGGTGAATTGCAAGACCAATGGGATGCGGAGTCACCTAGTGCAG”, the binding signal is reported as 3370 fluorescence intensity (a.u.).
With “GATTGGTGGCCTGCTTGACACCAACGCGCGCGCGCTGCCGCGGAGTCACCTAGTGCAG” the binding signal was 32400 fluorescence intensity (a.u.).
For “AACTAATACGTAGGCACTATCGTGGCATGCCACATCAACGCGGAGTCACCTAGTGCAG”, the binding signal was 8150 fluorescence intensity (a.u.).
With “TGATGATATGGAGTGAAGCCTTGGTAGAATTTCTGGGAATCGGAGTCACCTAGTGCAG” the binding signal was 22100 fluorescence intensity (a.u.).
